Data as given in PubChem BioAssay AID1259258 (Sanger Institute, 2017)

- Screen: 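Single siRNAs acting synergistically with drugs against colorectal cancer cells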 (follow-up of hits)
- System: human SW48 colorectal cancer cells
- Knock-down reagent: single siRNA against human genes
- Challenge: anchor drug cetuximab 5 µg/ml, trametinib 10 nM or BYL719 1 µM, or DMSO vehicle alone; assay length not stated
- Read-out: 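Synergy score per drug compares siRNA-plus-drug effect with each agent alone; viability, relative to non-targeting pool 2 and replicate-averaged, uses DMSO, cetuximab 5 µg/ml, trametinib 10 nM or BYL719 1 µM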
- Reading the numbers: synergy score with trametinib and synergy score with BYL719 and synergy score with cetuximab: higher = stronger synergy, more killing than expected
- Rule for the call: 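Hit when the synergy score is above 0.10 for at least one of trametinib, BYL719 or cetuximab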
Here is an unselected part of 160 reagents. Of all reagents, 40 (25%) were called active. 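Each row is one of four siRNAs per gene; a gene counts as confirmed only when several of its siRNAs show synergy.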 The numbers tell different reagents against one gene apart. Not all columns of the deposit are shown. Not stated in the record: the amount of reagent, the time to read-out.

gene	siRNA no.	synergy score with trametinib	synergy score with BYL719	synergy score with cetuximab	Call
EPHA6	1	0.0776	-0.0416	-0.0259	inactive
EPHA6	2	0.101	-0.00179	-0.0499	active
EPHA6	3	0.17	-0.0101	0.125	active
EPHA6	4	-0.159	0.0571	-0.000673	inactive
BRAF	1	0.127	-0.0295	-0.0122	active
BRAF	2	0.149	-0.0152	-0.201	active
BRAF	3	-0.113	-0.113	-0.182	inactive
BRAF	4	0.0172	-0.0814	-0.165	inactive
NR2F2	1	0.0222	-0.085	-0.169	inactive
NR2F2	2	-0.11	-0.134	-0.00677	inactive
NR2F2	3	-0.0759	-0.0113	-0.0578	inactive
NR2F2	4	0.181	0.0641	-0.105	active
CDK6	1	-0.021	-0.0918	-0.154	inactive
CDK6	2	0.0323	0.0237	-0.169	inactive
CDK6	3	0.148	0.0687	0.212	active
CDK6	4	0.0689	0.029	-0.085	inactive
PIM1	1	0.13	0.143	0.18	active
PIM1	2	-0.0198	-0.00997	-0.105	inactive
PIM1	3	-0.0871	-0.0683	-0.0117	inactive
PIM1	4	-0.139	-0.0954	-0.0504	inactive
NLK	1	-0.208	-0.186	-0.203	inactive
NLK	2	0.229	-0.0189	-0.028	active
NLK	3	-0.0771	-0.153	0.0847	inactive
NLK	4	-0.225	-0.0983	-0.111	inactive
ACVR1	1	-0.306	-0.305	-0.257	inactive
ACVR1	2	-0.0545	-0.0615	-0.112	inactive
ACVR1	3	-0.225	-0.316	-0.274	inactive
ACVR1	4	0.0191	-0.114	-0.212	inactive
MAPK4	1	0.083	-0.0118	0.0613	inactive
MAPK4	2	0.0353	-0.111	-0.102	inactive
MAPK4	3	-0.0521	-0.0701	-0.127	inactive
MAPK4	4	0.0298	0.0258	0.0334	inactive

Entries listed so far called active (8):
gene	siRNA no.	synergy score with trametinib	synergy score with BYL719	synergy score with cetuximab	Call
EPHA6	2	0.101	-0.00179	-0.0499	active
EPHA6	3	0.17	-0.0101	0.125	active
BRAF	1	0.127	-0.0295	-0.0122	active
BRAF	2	0.149	-0.0152	-0.201	active
NR2F2	4	0.181	0.0641	-0.105	active
CDK6	3	0.148	0.0687	0.212	active
PIM1	1	0.13	0.143	0.18	active
NLK	2	0.229	-0.0189	-0.028	active

The list goes on:
gene	siRNA no.	synergy score with trametinib	synergy score with BYL719	synergy score with cetuximab	Call
PAK1	1	0.0738	-0.0613	-0.0748	inactive
PAK1	2	-0.0985	-0.0766	0.00903	inactive
PAK1	3	0.0893	0.0566	-0.119	inactive
PAK1	4	0.223	0.0516	-0.00205	active
HUNK	1	0.0532	0.0424	-0.0522	inactive
HUNK	2	0.0794	-0.0591	0.0105	inactive
HUNK	3	0.115	-0.0158	-0.0134	active
HUNK	4	0.0964	0.0955	0.196	active
SYK	1	-0.0176	-0.02	-0.0421	inactive
SYK	2	0.117	-0.0649	0.00689	active
SYK	3	0.176	0.0725	0.0275	active
SYK	4	-0.104	-0.231	-0.274	inactive
MAPKAPK2	1	-0.0648	-0.014	-0.0132	inactive
MAPKAPK2	2	-0.215	-0.154	-0.125	inactive
MAPKAPK2	3	-0.279	-0.00158	-0.0791	inactive
MAPKAPK2	4	-0.14	-0.00606	-0.0875	inactive
PLK1	1	0.0406	-0.0417	-0.00879	inactive
PLK1	2	-0.0287	-0.0512	-0.0143	inactive
PLK1	3	0.00794	-0.0229	-0.0118	inactive
PLK1	4	-0.0209	-0.0766	-0.00596	inactive
BMPR2	1	-0.225	-0.095	-0.273	inactive
BMPR2	2	-0.00215	-0.0711	-0.0439	inactive
BMPR2	3	-0.202	-0.206	-0.274	inactive
BMPR2	4	-0.364	-0.207	-0.239	inactive
CHD4	1	0.0425	-0.111	0.0191	inactive
CHD4	2	0.0989	-0.00152	0.136	active
CHD4	3	0.082	-0.0992	-0.00478	inactive
CHD4	4	0.109	-0.0609	-0.00786	active
MARK3	1	-0.0888	-0.127	-0.16	inactive
MARK3	2	-0.161	-0.104	0.0344	inactive
MARK3	3	-0.0478	-0.0813	-0.0536	inactive
MARK3	4	0.116	-0.0436	-0.00399	active
